Among the data in PubChem BioAssay AID330 (DTP/NCI, 2004) are T/C and survivor count values, retold here.

This experiment concerns P388 leukemia ip, CD2F1 mice, survival T/C. Briefly: NCI In Vivo Anticancer Drug Screen. Data for tumor model P388 Leukemia (intraperitoneal) in CD2F1 (CDF1) mice. As to conditions: T/C endpoint: median survival time, higher T/C = longer survival.
[1] abbreviates: dose: 12.5 mg/kg/injection, schedule: Q01DX009 (ip), vehicle: other.
The mark [2] stands for this setting: dose: 50.0 mg/kg/injection, schedule: Q01DX009 (ip), vehicle: other.
[3] abbreviates: dose: 100.0 mg/kg/injection, schedule: Q01DX009 (ip), vehicle: other.
Setting [4] is: dose: 200.0 mg/kg/injection, schedule: Q01DX009 (ip), vehicle: other.
Setting [5] is: dose: 50.0 mg/kg/injection, schedule: Q01DX009 (ip), vehicle: Klucel (hydroxypropylcellulose) (HPC).
[6] abbreviates: dose: 100.0 mg/kg/injection, schedule: Q01DX009 (ip), vehicle: saline with Tween-80.
The mark [7] stands for this setting: dose: 50.0 mg/kg/injection, schedule: Q01DX009 (ip), vehicle: saline with Tween-80.
[8] abbreviates: dose: 200.0 mg/kg/injection, schedule: Q01DX009 (ip), vehicle: saline with Tween-80.
Setting [9] is: dose: 100.0 mg/kg/injection, schedule: Q01DX005 (ip), vehicle: Klucel (hydroxypropylcellulose) (HPC).
Where [10] appears, read: dose: 200.0 mg/kg/injection, schedule: Q01DX005 (ip), vehicle: saline with Tween-80.

The list is a part of this screen's results and no random one: it gathers tests that were run many times, whatever their T/C, doses with no T/C, and many T/C values between a quarter and a half above the control. Further doses and runs are listed elsewhere. T/C is the treated group as % of the vehicle group. Some doses have a count of surviving animals in place of a T/C: the source files T/C as zero there, which appears to mark a toxic dose or a test without result, not a measured value. Some doses without a T/C left all or most animals alive at the check, yet need not have been tolerated: survival well below the control is almost never listed, so the zero probably covers shortened survival too. Survivors were counted at the toxicity check, usually on the fifth day, unless a day is given; later deaths do not show. Schedule codes are those of the source, taken here to give the interval after Q, in days (D) or hours (H), and the number of doses after X. Some entries hold several experiments; their values stand side by side, smallest first. For survival time, the PubChem record calls one and a half times the control and up active, and a quarter to a half above the control has no call in these data; cut-offs in other NCI protocols can differ.

For `CCCC(=O)OCc1cc(=O)n(C)c2c3c4c(cc12)c(C)cc(=O)n4CO3`, the T/C runs as follows: (dose: 6.25 mg/kg/injection, schedule: Q01DX009 (ip), vehicle: other) 148 % of control; under setting [1], 143 % of control. The survivor count is 3 of 3 under setting [2]; 2 of 6 and 2 of 3 under setting [3]; 0 of 6 under setting [4].
As to `COc1ccc(OCC(O)CN2CCN(c3ccc(Cl)cc3)CC2)cc1` (centres undefined), the survivor count (dose: 400.0 mg/kg/injection, schedule: Q04DX003 (ip), vehicle: Klucel (hydroxypropylcellulose) (HPC)) is 6 of 6.
Turning to `N#Cc1ncc(C(Cl)Cl)nc1Cl`, the survivor count by setting is: (dose: 100.0 mg/kg/injection, schedule: Q01DX009 (ip), vehicle: saline) 4 of 6; (dose: 200.0 mg/kg/injection, schedule: Q01DX009 (ip), vehicle: saline) 1 of 6.
Regarding `CC(C)(CC#N)c1cc(CC(C)(C)c2cc(CC(C)(C)c3cc(CC(C)(C)C4(C)OCCO4)no3)no2)no1`, the survivor count (dose: 120.0 mg/kg/injection, schedule: Q01DX005 (ip), vehicle: saline with Tween-80) is given as 6 of 6.
As for `COc1cc2c(c(OC)c1OC)-c1ccc(S(=O)(=O)Cc3ccccc3)c(=O)cc1C(NC(C)=O)CC2` (centres undefined), the survivor count under setting [5] was 0 of 6 and 2 of 6.
With `CC(C)C1=C(O)C2=C(C(=O)C1=O)C1(C)CCCC(C)(C)C1CC2O` (centres undefined), the survivor count under setting [6] is 6 of 6.
Consider `C/C(N)=C\C(=S)Nc1ccccc1`, for which the survivor count is, setting by setting: under setting [5], 6 of 6; (dose: 100.0 mg/kg/injection, schedule: Q01DX009 (ip), vehicle: Klucel (hydroxypropylcellulose) (HPC)) 1 of 6; (dose: 200.0 mg/kg/injection, schedule: Q01DX009 (ip), vehicle: Klucel (hydroxypropylcellulose) (HPC)) 0 of 6.
As for `Clc1c(Cl)c2c(Cl)c(Cl)c1C[P+](c1ccccc1)(c1ccccc1)CC[P+](c1ccccc1)(c1ccccc1)Cc1c(Cl)c(Cl)c(c(Cl)c1Cl)C[P+](c1ccccc1)(c1ccccc1)CC[P+](c1ccccc1)(c1ccccc1)C2`, the survivor count by setting is: (dose: 12.5 mg/kg/injection, schedule: Q01DX009 (ip), vehicle: saline with Tween-80) 0 of 6; (dose: 25.0 mg/kg/injection, schedule: Q01DX009 (ip), vehicle: saline with Tween-80) 0 of 6; under setting [7], 0 of 6.
Consider `Cc1ccc2ccc3ccc(C)nc3c2n1.O=[N+]([O-])O.O=[N+]([O-])O.[Cu]`, for which the survivor count (dose: 25.0 mg/kg/injection, schedule: Q04DX002 (ip), vehicle: saline) is recorded as 1 of 6; the survivor count (dose: 100.0 mg/kg/injection, schedule: Q04DX002 (ip), vehicle: suspension in saline) is 0 of 6; the survivor count (dose: 200.0 mg/kg/injection, schedule: Q04DX002 (ip), vehicle: suspension in saline) is 0 of 6; the survivor count (dose: 400.0 mg/kg/injection, schedule: Q04DX002 (ip), vehicle: suspension in saline) is reported as 0 of 6.
In the case of `O=C1NC(c2ccccc2)(c2ccccc2)C(=O)N1CCBr`, the T/C (dose: 50.0 mg/kg/injection, schedule: Q04DX003 (ip), vehicle: Klucel (hydroxypropylcellulose) (HPC)) is 131 % of control.
On to `C#CC(=O)O`, for which the survivor count under setting [7] is given as 6 of 6.
Turning to `O=C(Nc1ccccc1)Oc1cccc(/C=N/Sc2ccccc2)c1`, the survivor count is, setting by setting: under setting [6], 6 of 6; under setting [8], 6 of 6.
For the compound `CC(=NC(C)C)Nc1ccccc1`, the survivor count under setting [8] is reported as 0 of 6.
Take `Nc1ncnc2c1ccn2C1OC(CO)C(O)C1O` (centres undefined): the survivor count was 5 of 6 (dose: 1.0 mg/kg/injection, schedule: Q01DX009 (ip), vehicle: water); 4 of 6 (dose: 2.0 mg/kg/injection, schedule: Q01DX009 (ip), vehicle: water); 1 of 6 (dose: 4.0 mg/kg/injection, schedule: Q01DX009 (ip), vehicle: water); 0 of 6 (dose: 25.0 mg/kg/injection, schedule: Q01DX005 (ip), vehicle: Klucel (hydroxypropylcellulose) (HPC)); 6 of 6 (dose: 32.0 mg/kg/injection, schedule: Q01DX010 (sc), vehicle: saline); 0 of 6 (dose: 50.0 mg/kg/injection, schedule: Q01DX005 (ip), vehicle: Klucel (hydroxypropylcellulose) (HPC)). Also, the survivor count is, setting by setting: (dose: 64.0 mg/kg/injection, schedule: Q01DX010 (sc), vehicle: saline) 6 of 6; under setting [9], 0 of 6. Also, the T/C by setting is: (dose: 1.75 mg/kg/injection, schedule: Q01DX001 (ip), vehicle: saline) 125 % of control; (dose: 3.5 mg/kg/injection, schedule: Q01DX001 (ip), vehicle: saline) 135 % of control.
On to `COc1ccc2ncc(COC(=O)Nc3ccccc3)c(COC(=O)Nc3ccccc3)c2c1`, for which the survivor count under setting [9] is given as 6 of 6 and the survivor count (dose: 200.0 mg/kg/injection, schedule: Q01DX005 (ip), vehicle: Klucel (hydroxypropylcellulose) (HPC)) is 6 of 6.
With `Cc1cc2c(C(C)C)c(O)c(O)c(C=NC3CCCCC3)c2c(O)c1-c1c(C)cc2c(C(C)C)c(O)c(O)c(C=NC3CCCCC3)c2c1O`, the survivor count runs as follows: (dose: 50.0 mg/kg/injection, schedule: Q01DX005 (ip), vehicle: saline with Tween-80) 5 of 5; (dose: 100.0 mg/kg/injection, schedule: Q01DX005 (ip), vehicle: saline with Tween-80) 5 of 5; under setting [10], 5 of 5.
With `COc1ccc(Cc2cc(N=O)c(OC)cc2O)cc1`, under setting [10], the survivor count is listed as 5 of 6.
Consider `COc1c2c(c(OC)c3c(OC)c4ccccc4c(OC)c13)CC(=O)CC2`, for which the survivor count is, setting by setting: under setting [1], 5 of 5; (dose: 25.0 mg/kg/injection, schedule: Q01DX009 (ip), vehicle: other) 5 of 5; under setting [2], 5 of 5; under setting [3], 5 of 5; under setting [4], 5 of 5.
As to `Cc1nn(C(=O)c2ccncc2)c(C)c1N=Nc1nc2ccc([N+](=O)[O-])cc2s1`, the survivor count (dose: 400.0 mg/kg/injection, schedule: Q04DX002 (ip), vehicle: saline with Tween-80) was 0 of 6.
On to `COc1cc2c(cc1O)CCCCC2O` (centres undefined), for which the survivor count is listed as 6 of 6 (dose: 25.0 mg/kg/injection, schedule: Q01DX009 (ip), vehicle: DMSO); 6 of 6 (dose: 50.0 mg/kg/injection, schedule: Q01DX009 (ip), vehicle: DMSO); 6 of 6 (dose: 100.0 mg/kg/injection, schedule: Q01DX009 (ip), vehicle: DMSO); 3 of 6 (dose: 200.0 mg/kg/injection, schedule: Q01DX009 (ip), vehicle: DMSO); 1 of 6 (dose: 400.0 mg/kg/injection, schedule: Q01DX009 (ip), vehicle: DMSO).
Take `CSc1nc(N)c(I)c(Cl)n1`: the survivor count (dose: 400.0 mg/kg/injection, schedule: Q04DX003 (ip), vehicle: saline with Tween-80) is 0 of 6.
